Data: PMC6262466, “Towards Initial Indications for a Thiol-Based Redox Control of Arabidopsis 5-Aminolevulinic Acid Dehydratase” (Antioxidants, 2018)
These are yes or no findings as the source states them, for the method shown. Binding seen in cells or lysates may run through a third protein. Binding calls can cover weak binding; strength is not graded here.

Target: 6 x His-tagged TRX f2(C112S)
Test: pull-down; 100 ug purified 6 x His-tagged bait on Ni-NTA agarose in PBS; incubated 1.5 h at 4 C with Arabidopsis chloroplast extract solubilized with 1% dodecyl maltoside; five washes with PBS; eluted with 250 mM imidazole; immunoblot; only the target purified

binding: binds
B1: recombinant His-tagged ALAD (ALAD1 without the predicted transit peptide) (enzyme, Arabidopsis thaliana, UniProt Q9SFH9 53-430, looked up)
chain: ASESGNGHAKKLGMSDAECEAAVAAGNVPEAPPVPPKPAAPVGTPIIKPLNLSRRPRRNRASPVTRAAFQETDISPANFVYPLFIHEGEEDTPIGAMPGCYRLGWRHGLVQEVAKARAVGVNSIVLFPKVPEALKNSTGDEAYNDNGLVPRTIRLLKDKYPDLIIYTDVALDPYSSDGHDGIVREDGVIMNDETVHQLCKQAVSQARAGADVVSPSDMMDGRVGAIRSALDAEGFQNVSIMSYTAKYASSFYGPFREALDSNPRFGDKKTYQMNPANYREALIEAREDEAEGADILLVKPGLPYLDIIRLLRDKSPLPIAAYQVSGEYSMIKAGGVLKMIDEEKVMMESLMCLRRAGADIILTYFALQAATCLCGEKR
notes: Arabidopsis thaliana ALAD1 (HEMB1; AT1G69740) without the predicted transit peptide (ChloroP); also called recombinant ALAD; purified ALAD; source: E. coli Rosetta(DE3), pET28a, purified (Ni-NTA agarose); not shown: His6, N-terminal, kept
